The results in this text go back to the supplement of paper PMC8866396.

± gives the standard deviation of the averaged measurements. This is one part of the list. This data set is noisy: repeats of one test often differ as much as different tests do.

The subject of this assay is IL-6-GFP PC-9. Kind of assay: IL-6-GFP fluorescence relative to DMSO control (fraction of control); higher = more IL-6-GFP expression. As to conditions: compound concentration: 10 uM; treatment time: 48 h. As to the method:
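IL-6-GFP-overexpressing PC-9 and PC-9GR EGFR-mutant lung cancer cells (3000 cells/well, 96-well) were treated for 48 h with each compound of the Selleck L2000 library at 10 uM. IL-6-GFP fluorescence was read on a high-content screening system, and viability by CCK-8 absorbance on a parallel plate set. Each value was normalised as compound well / DMSO control well; two independent replicates.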
For the molecule `CC12CCC3c4ccc(OC(=O)N(CCCl)CCCl)cc4CCC3C1CCC2OP(=O)([O-])[O-].[Na+].[Na+]` (configuration not stated) [Estramustine phosphate sodium], the IL-6-GFP fluorescence was 1.12 ± 0.4.
For the molecule `O=c1c2ccccc2[se]n1-c1ccccc1` [Ebselen], the IL-6-GFP fluorescence was found to be 0.8369 ± 0.0038.
As for `COC1=CC2C3Cc4ccc(OC)c(O)c4C2(CCN3C)CC1=O.Cl` (configuration not stated) [Sinomenine hydrochloride], the figure is 0.848 ± 0.052; as for `O=C(O)CCCc1ccc(N(CCCl)CCCl)cc1` [Chloroambucil], 0.937 ± 0.05.
As for `CC(C)[N+](C)(CCC(C(N)=O)(c1ccccc1)c1ccccc1)C(C)C.[I-]` [Isopropamide Iodide], the figure is 0.946 ± 0.079; as for `O=P1(NCCCl)OCCCN1CCCl` (configuration not stated) [Ifosfamide], 0.719 ± 0.26.
As for `CC1CC(=O)CC2CCC3C4CCC(O)C4(C)CCC3C12C` (configuration not stated) [Mesterolone], the figure is 0.8333 ± 0.0049; as for `COc1cc2c(c(OC)c1OC)-c1ccc(OC)c(=O)cc1C(NC(C)=O)CC2` (configuration not stated) [Colchicine], 0.87 ± 0.23.
`COc1cc2c(cc1O)CC1c3c(cc(O)c(OC)c3-2)CCN1C` (configuration not stated) [Boldine] had an IL-6-GFP fluorescence of 0.86 ± 0.19.
As for `COc1cc(C2c3cc4c(cc3C(O)C3COC(=O)C23)OCO4)cc(OC)c1OC` (configuration not stated) [Picropodophyllin (PPP)], the figure is 0.909 ± 0.043; as for `Cc1c(N)nc(C(CC(N)=O)NCC(N)C(N)=O)nc1C(=O)NC(C(=O)NC(C)C(O)C(C)C(=O)NC(C(=O)NCCc1nc(-c2nc(C(=O)NCCC[S+](C)C)cs2)cs1)C(C)O)C(OC1OC(CO)C(O)C(O)C1OC1OC(CO)C(O)C(OC(N)=O)C1O)c1c[nH]cn1.O=S(=O)([O-])O` (configuration not stated) [Bleomycin sulfate], 1.01 ± 0.013.
As for `c1ccc2c(c1)Sc1ccccc1N2CC1CN2CCC1CC2` (configuration not stated) [Mequitazine], the figure is 0.788 ± 0.013; as for `Cn1cc(C2=C(c3cn(C4CCN(Cc5ccccn5)CC4)c4ccccc34)C(=O)NC2=O)c2ccccc21`, 0.878 ± 0.043; as for `CC12CCC3C(CCC4=C(O)C(=O)CCC43C)C1CCC2=O` (configuration not stated) [Formestane], 0.893 ± 0.27.
As for `CC(C)C12OC1C1OC13C1(C)CCC4=C(COC4=O)C1CC1OC13C2=O` (configuration not stated) [Triptonide], the figure is 1.11 ± 0.14; as for `O=C(O)c1nn(Cc2ccc(Cl)cc2Cl)c2ccccc12` [Lonidamine], 0.941 ± 0.28; as for `Cn1c(CCCC(=O)O)nc2cc(N(CCCl)CCCl)ccc21` [Bendamustine], 0.823 ± 0.016.
As to `CN(C)NC(=O)CCC(=O)O` [Daminozide], the IL-6-GFP fluorescence came out at 0.953 ± 0.12.
Molecule `CC1CCC2N(C1)CC1C3CC4C(CC(O)C5CC(O)CCC54C)C3CCC1C2(C)O` (configuration not stated) [Peimine] displayed an IL-6-GFP fluorescence of 0.873 ± 0.028.
On to `COC(=O)CC(O)(CCC(C)(C)O)C(=O)OC1C(OC)=CC23CCCN2CCc2cc4c(cc2C13)OCO4` (configuration not stated) [Harringtonine], for which the IL-6-GFP fluorescence is 1.13 ± 0.19.
As for `CCC1=CC2CN3CCc4c([nH]c5ccccc45)C(C(=O)OC)(C2)C13` (configuration not stated) [Catharanthine], the figure is 1.15 ± 0.39; as for `COC1=CC2C3Cc4ccc(OC)c(O)c4C2(CCN3C)CC1=O` (configuration not stated) [Sinomenine], 0.799 ± 0.18; as for `CC(C)(C)NCC(O)c1ccccc1Cl.Cl` (configuration not stated) [Tulobuterol hydrochloride], 0.714 ± 0.038.
As for `CC(C)C12OC1C1OC13C1(C)CCC4=C(COC4=O)C1CC1OC13C2O` (configuration not stated) [Triptolide (PG490)], the figure is 1.11 ± 0.18; as for `Cc1cccc(C(C)c2c[nH]cn2)c1C.Cl` (configuration not stated) [Medetomidine HCl], 0.798 ± 0.26; as for `C=CCN1CC(C(=O)N(CCCN(C)C)C(=O)NCC)CC2c3cccc4[nH]cc(c34)CC21` (configuration not stated) [Cabergoline], 0.854 ± 0.05.
In the case of `O.O=P1(N(CCCl)CCCl)NCCCO1` (configuration not stated) [Cyclophosphamide Monohydrate] it was 0.944 ± 0.3; in that of `Cl.Cn1c(CCCC(=O)O)nc2cc(N(CCCl)CCCl)ccc21` [Bendamustine HCl], 0.931 ± 0.19.
In turn, `O=C(O)C1C2CCC(O2)C1C(=O)[O][Na]` (configuration not stated) [Sodium Demethylcantharidate] came in with an IL-6-GFP fluorescence of 0.709 ± 0.058.
`CCC1(O)C(=O)OCc2c1cc1n(c2=O)Cc2cc3ccccc3nc2-1` (configuration not stated) [Camptothecin] came in with an IL-6-GFP fluorescence of 0.758 ± 0.099.
In turn, `CCC1(O)C(=O)OCc2c1cc1n(c2=O)Cc2c-1nc1ccccc1c2CCNC(C)C.Cl` (configuration not stated) [Belotecan (CKD-602) hydrochloride] returned an IL-6-GFP fluorescence of 1.23 ± 0.12.
Turning to `NC(Cc1ccc(N(CCCl)CCCl)cc1)C(=O)O` (configuration not stated) [Melphalan], the IL-6-GFP fluorescence turned out to be 0.891 ± 0.038.
